# PubChem BioAssay AID1347421 (Sanford-Burnham Center for Chemical Genomics, 2020)
# Sequences of proteins named here, by UniProt entry; tags and fusion partners are left off. A change or cut given only in a name is not applied to a line headed by its entry.
# UniProt O00391: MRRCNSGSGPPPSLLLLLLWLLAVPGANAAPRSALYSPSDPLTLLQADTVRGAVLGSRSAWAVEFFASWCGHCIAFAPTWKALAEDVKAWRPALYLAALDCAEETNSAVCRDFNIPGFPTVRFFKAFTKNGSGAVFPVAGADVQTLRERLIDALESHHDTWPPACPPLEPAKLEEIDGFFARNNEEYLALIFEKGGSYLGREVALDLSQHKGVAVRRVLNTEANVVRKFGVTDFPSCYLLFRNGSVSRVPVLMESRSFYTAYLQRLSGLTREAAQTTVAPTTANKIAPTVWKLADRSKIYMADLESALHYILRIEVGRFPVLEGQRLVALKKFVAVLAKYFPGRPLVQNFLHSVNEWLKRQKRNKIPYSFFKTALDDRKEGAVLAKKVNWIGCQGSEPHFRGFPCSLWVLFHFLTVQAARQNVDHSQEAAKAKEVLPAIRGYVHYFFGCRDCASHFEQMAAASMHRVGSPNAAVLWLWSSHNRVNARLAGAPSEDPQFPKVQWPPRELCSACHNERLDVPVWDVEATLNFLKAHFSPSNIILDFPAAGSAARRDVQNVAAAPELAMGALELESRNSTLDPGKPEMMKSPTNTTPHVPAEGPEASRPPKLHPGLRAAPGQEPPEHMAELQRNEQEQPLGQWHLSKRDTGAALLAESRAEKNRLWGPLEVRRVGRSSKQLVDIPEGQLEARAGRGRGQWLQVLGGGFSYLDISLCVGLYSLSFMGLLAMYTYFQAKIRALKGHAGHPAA
# The full ranking holds about 1,500 compounds; the median of “activity” is about 2, and the lowest 2% start at about -18. This is one part of the list. Activity calls are given as the source filed them.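 The calls were made as follows: active = inhibition of at least 40% at 10 µM; inconclusive = no clear call, values can overlap the other calls; inactive = the rest.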
# Target: Sulfhydryl oxidase 1 (Homo sapiens) (UniProt O00391)
# Assay: human QSOX1 sulfhydryl oxidase inhibition – biochemical, ROS-Glo luminescence, single concentration, confirmation (AID 1347421);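 also: 0% = DMSO wells with enzyme and 100% = wells lacking QSOX1 enzyme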
# Details: recombinant hQSOX1, RNase A substrate, ROS-Glo H2O2 luminescence; at 10 µM
row,Compound,activity
1,COc1ccccc1N1CCN(c2ncccc2CNC(=O)CN(C)C)CC1,1.1%
2,O=C(O)c1ccc(S(=O)(=O)N2CCSCC2)cc1,inactive: -3%
3,CCCNC(=O)c1nc(SC)ncc1Cl,inactive: -17.1%
4,CCCCc1ncc(CN2CCc3onc(-c4ccccc4F)c3C2)[nH]1,inactive: -3.8%
5,Cc1cc(C(=O)N2CCC3(CCCN(CC4CCCCC4)C3=O)C2)n[nH]1 (stereo not drawn),inactive: -4.3%
6,CCN(Cc1ccncc1)Cc1ccc(OC)cc1OCC(O)CN1CCCC1 (stereo not drawn),8.1%
7,Cn1cc(CN2CCCC(C(N)=O)C2)c(-c2ccc(C3CCCCC3)cc2)n1 (stereo not drawn),6.3%
8,C=CC[C@@H]1CC=C[C@@H](C)N1Cc1cn[nH]c1-c1cc(OC)c(OC)c(OC)c1,inactive: -2.7%
9,Cc1nnc(SCC(=O)NC2CCCCC2)[nH]c1=O,7.5%
10,Cn1c(CN2CCCC(CO)(Cc3ccc(F)cc3F)C2)nc2ccccc21 (stereo not drawn),inactive: -0.4%
11,CC(=O)Nc1ccc(C(=O)CSc2cc(C)c3ccccc3n2)cc1,inactive: -0.4%
12,CN1CCN(C(=O)CCC2CCCN(C(=O)Cc3ccc4c(c3)OCO4)C2)CC1 (stereo not drawn),0.8%
13,COc1ccc(-c2nc(CN(CC3CC3)CC3CCCO3)c(C)o2)c(OC)c1 (stereo not drawn),1.5%
14,Cc1ccc(NC(=O)c2ccc(N)cc2)c(N)c1,10.6%
15,CN(C)C(=O)CN1CCN(Cc2c(C(=O)N3CCOCC3)nc3ccccn23)CC1,0.5%
16,Cc1cc(CNCC2(c3cccc(F)c3)CCOC2)ccn1 (stereo not drawn),9.4%
17,CC(C)c1nc(CNC(=O)CCc2nnc(C3CCCCC3)o2)cs1,2.3%
18,COc1cc(C)nc(NC(=O)Nc2cccc(Cl)c2)n1,inactive: -2.3%
19,O=c1cc(N2CCNCC2)cnn1Cc1ccc(C(F)(F)F)nc1,inactive: -1.2%
20,O=C1CCC(C(=O)N2CCC3(C=Cc4ccccc43)CC2)CN1CCc1ccccn1 (stereo not drawn),3.8%
21,O=C(NC1CCS(=O)(=O)C1)C(c1ccccc1)c1ccccc1 (stereo not drawn),inactive: -13.7%
22,COc1ccc(CN2CC[C@@H](N(C)CCc3ccccn3)[C@H](O)C2)c(C)c1C,4.3%
23,O=C(NCCN1CCCCC1)c1coc(CN2CCN(c3ccccc3F)CC2)n1,inactive: -0.2%

row,Compound,activity
1,CN(CCc1ccccc1)C1CCCN(C(=O)CCc2nc3ccccc3[nH]2)C1 (stereo not drawn),1.6%
2,Cc1nc(CN2CCN(c3nncc(-c4cccc5ccccc45)n3)CC2)cs1,2%
3,CCN(CC)CC(O)COc1cc(CN(C)CCC2CCOCC2)ccc1OC (stereo not drawn),1.3%
4,COc1ccc(/C(O)=C2/C(=O)C(=O)N(CCN(C)C)C2c2ccncc2)c(C)c1 (stereo not drawn),2.3%
5,COc1cc(CN2CCCC(Nc3ccc4c(c3)OCO4)C2)c(Cl)cc1O (stereo not drawn),inactive: -1.2%
6,Cc1cc2c(SCC(=O)O)ncnc2s1,inactive: -2.1%
7,c1ccc(-c2nn3c(-c4ccco4)nnc3s2)nc1,inactive: -4.2%
8,Cc1cnc(SCc2cnc(C)nc2N)nc1,2.6%
9,CN1CCC(N2CCCC(NC(=O)C3(N4CCCCC4)CCCCC3)C2)CC1 (stereo not drawn),2.9%
10,Cc1ccc(SCCSc2nc(N)cc(=O)[nH]2)cc1,inactive: -14.1%
11,Cc1cc(=O)[nH]c(SCC(=O)N2CCCCCC2)n1,inactive: -1.9%
12,Cc1ccc(CN2CCN(CC#Cc3ccccc3)CC2CCO)o1 (stereo not drawn),inactive: -1.5%
13,O=C1NCCN(CCc2ccccc2)C1CC(=O)N1CCC(N2CCOCC2)CC1 (stereo not drawn),7.1%
14,Cc1cn2c3c(=O)n(C)c(=O)n(C)c3nc2n1C1CCCC1,inactive: -4.1%
15,CC(C)(C)c1ccc2c(c1)N(CC(=O)N1CCOCC1)C(=O)CO2,6%
16,Cc1c(CN2CCc3[nH]nc(-c4ccc5c(c4)OCO5)c3C2)cnn1C,6%
17,CCOc1cc(S(=O)(=O)NC2CCCC2)c(OCC)cc1C,1.8%
18,O=C(c1cc(COc2ccccc2)[nH]n1)N1CCN(Cc2cccs2)CC1,0.6%
19,O=C(NC1CC(=O)N(CCCc2ccccc2)C1)C(=O)c1ccccc1 (stereo not drawn),inactive: -1%
20,COc1ccc(C2CC(=O)c3cn[nH]c3C2)cc1 (stereo not drawn),inactive: -17.7%
21,Cc1ccoc1C(=O)N1CCC2(CCCN(CCC3CCCCC3)C2=O)C1 (stereo not drawn),8.1%
22,CC(C)(CO)NC(=O)CC(c1ccccc1)c1ccc(Cl)cc1 (stereo not drawn),0.5%
23,O=C(Nc1ccc2[nH]c(=O)[nH]c2c1)c1cc2ccccc2o1,inactive: -16.7%

# 3 compounds drawn at random from those above:
row,Compound,activity
7,Cn1cc(CN2CCCC(C(N)=O)C2)c(-c2ccc(C3CCCCC3)cc2)n1 (stereo not drawn),6.3%
22,CC(C)(CO)NC(=O)CC(c1ccccc1)c1ccc(Cl)cc1 (stereo not drawn),0.5%
3,CCCNC(=O)c1nc(SC)ncc1Cl,inactive: -17.1%

# Two entries from above, set out differently:
row | Compound | activity
4 | COc1ccc(/C(O)=C2/C(=O)C(=O)N(CCN(C)C)C2c2ccncc2)c(C)c1 (stereo not drawn) | 2.3%
5 | COc1cc(CN2CCCC(Nc3ccc4c(c3)OCO4)C2)c(Cl)cc1O (stereo not drawn) | inactive: -1.2%

# Remaining list, next part.

row,Compound,activity
1,CCN(CC)CC(O)COc1cc(CN(C)Cc2nccn2CC)ccc1OC (stereo not drawn),inactive: -2.5%
2,C=CCOc1ccccc1CN1CCC(CCC(=O)NCCOC)CC1,inactive: -4.1%
3,CCS(=O)(=O)c1ncc(CN(C)CCC2CCOCC2)n1CCOC,0.9%
4,CCCN1CCC(NC(=O)c2cn(Cc3c(F)cccc3F)nn2)CC1,20.4%
5,O=C1CCCN1CCCC(=O)N1CCOC(Cc2ccccc2Cl)C1 (stereo not drawn),4.4%
6,COc1cccc(CN2CCCC(NCc3ccc4nonc4c3)C2)c1 (stereo not drawn),inactive: -3.2%
7,CCCS(=O)(=O)c1ccccc1C(=O)N1CCc2ccccc21,2.3%
8,COc1ccccc1C(=O)C1CCCN(Cc2ccc(OCCO)cc2)C1 (stereo not drawn),1.5%
9,CN(Cc1cccnc1)Cc1ccccc1OCC(O)CN1CCCCC1 (stereo not drawn),2.6%
10,COc1cc(OC)cc(C(=O)NCC2CCCN(CCCSC)C2)c1 (stereo not drawn),inactive: -0.2%
11,C=CCn1cc(CNC2CC(=O)N(Cc3cccc(F)c3)C2)c(C)n1 (stereo not drawn),inactive: -1.3%
12,CCN(CC)CCN(CC)C(=O)c1cc(COc2ccc(C)cc2OC)on1,4.1%
13,Cc1nc(CC(=O)N2CCCC(CNC(=O)c3ccc(F)cc3)C2)cs1 (stereo not drawn),inactive: -1.5%
14,CC(C)n1ncnc1NC(=O)NCc1cccc(OC(F)(F)F)c1,4.9%
15,O=C1COc2ccc(C(=O)NC3CC3)cc2N1,inactive: -9.4%
16,CSc1ccc(C(=O)C2CCCN(C(=O)c3cccnc3SC)C2)cc1 (stereo not drawn),inactive: -0.9%
17,Cc1cc(C(=O)N2CCOC(CCCc3ccccc3)C2)nc(N)n1 (stereo not drawn),1.5%
18,C=C(C)CN(CC)Cc1nc(-c2ccc(F)cc2)oc1C,7.1%
19,O=C(NCC1CCCN(Cc2ccncc2)C1)c1cccc(C(F)(F)F)c1 (stereo not drawn),3.6%
20,CCN1CCN(Cc2nn(-c3ccc(F)cc3)c(N)c2-c2ccccc2)CC1,4.5%
21,C=C(C)CNCc1ccc(OCC(O)CN2CCSCC2)c(OC)c1 (stereo not drawn),2.3%
22,O=C(Nc1cccc(F)c1)N1CCCC(CNS(=O)(=O)Cc2ccccc2)C1 (stereo not drawn),6.7%
